Screening data, single-dose tests

Source: ChEMBL document CHEMBL3988442, “University of Dundee, Small-Polar-MMV Screening Library” (2021).

Results are given as percent effect. How 0% and 100% were set is not recorded. Most values in the screen are low, and negative values occur. Compounds were drawn at random from those tested, without regard to their results.

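Phenotypic screen: M. tuberculosis growth, cholesterol and DPPC medium, 4 days; the read-out is not stated. Compounds at 500 µM. Direction is inferred from retests: higher values go with more growth inhibition. Of about 18,000 compounds tested this way, about 900 (5%) reached 50% or more in at least one test.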

With O=S(=O)(NCC1(c2ccccc2)CC1)N1CCOCC1 the screen gave 34.06%. O=C(CN(CC(=O)NC1CC1)C1CC1)NC1CC1 gave -5.766%. CN1CCN(C2CCCCN(C(=O)C(C)(C)C)C2)CC1 (stereo not drawn) read 2.597%. For CCN1CCC(NC(=O)c2c(F)cccc2OC)C1 (stereo not drawn) the result was -16.09%. O=C(NCC(O)c1ccc(Cl)cc1Cl)c1csnn1 (stereo not drawn) gave -10.54%. With Cc1noc(C)c1CN1CCCC(O)C1 (stereo not drawn) the screen gave -0.2586%. With Cn1cc(Br)c(CO)n1 the screen gave 9.261%. CC(C)COc1ccc(C(=O)N(C)CC(N)=O)cn1 gave 12.3%.

Result for CN(C)C(=O)CCc1ccc2c(c1)OCCO2 was 25.3%. For O=S(=O)(C1CC1)N1CCC(Nc2ccccn2)CC1 the result was -9.664%. For Cc1noc(C)c1CCC(=O)NCC1CCS(=O)(=O)C1 (stereo not drawn) the result was -3.168%. Result for CCn1ccc(NC(=O)NCC(C)C)n1 was 9.708%. Cc1ccc(N2CCCC(N)C2)cc1 (stereo not drawn) read 26.78%. CC1(C)NC(=O)CC1c1ccccc1 (stereo not drawn) gave 4.346%. For Cc1c(C(=O)NCc2cccnc2N(C)C)cnn1C the result was 2.653%. COCc1n[nH]c(N)c1-c1ccc(OC)cc1 read 21.95%.

CCOC(=O)CNC(=O)N1CCn2cccc2C1C (stereo not drawn) gave -22.09%. Cc1ccc(NS(=O)(=O)N(C)C)c(C)c1 gave 13.96%. Result for C[C@@H]1CN(C(=O)c2ccccc2C#N)C[C@]1(C)O was -12.35%. For Cc1ccc(C(=O)NC2CC(C)(C)NC(C)(C)C2)cn1 the result was -2.302%. Result for CN(CC(C)(CO)CO)c1ncc(Cl)cc1Cl was 70.57%. CCC(=O)NC1CCCN(Cc2noc(C)n2)C1 (stereo not drawn) read -9.786%. CCOC(=O)C1=C(CN(C)CC)NC(=O)NC1 read -24.55%. NCC(=O)NCCN1CCCCC1 read -9.237%.

CN1N=C(C(N)=O)CCC1=O gave -8.721%. Result for O=C(COc1cccc(F)c1)N1CCN(CCO)CC1 was 2.08%. Cn1ncnc1CCNC(=O)c1ccsc1 read -6.417%. Result for CCC(CC)C(=O)N1CCC(=O)Nc2ccccc21 was -2.815%. Cc1cc(C(=O)N[C@@H]2CCOC[C@H]2O)sc1C read -8.327%. With CC(C)NC(=O)Cn1cnc2c1c(=O)n(C)c(=O)n2C the screen gave -0.8616%. With COc1ccc(N2CCN(S(=O)(=O)CCN)CC2)cc1 the screen gave 8.006%. COCCN1C(=O)C[C@H](CN)[C@H]1c1cnn(C)c1 gave 11.7%.

With CCCc1nc(CNC(=O)Cc2ccccn2)cs1 the screen gave 10.27%. Clc1ccc2oc(N3CCNCC3)nc2c1 gave 11.87%. Result for CNC(=O)Cn1cnc(N)n1 was 3.276%. Result for CC(C)C(=O)N1CCCC1C(=O)Nc1ccc(F)cc1 (stereo not drawn) was 12.54%.

4 of the entries, repeated:

Compound	Percent Effect
Cc1cc(C(=O)N[C@@H]2CCOC[C@H]2O)sc1C	-8.327
CN1CCN(C2CCCCN(C(=O)C(C)(C)C)C2)CC1 (stereo not drawn)	2.597
O=C(CN(CC(=O)NC1CC1)C1CC1)NC1CC1	-5.766
CCOC(=O)CNC(=O)N1CCn2cccc2C1C (stereo not drawn)	-22.09